Data on two molecules can be found in paper PMC11394124.

Amino acid sequences for entries named in this document (tags omitted). Residues count along the entry.
UniProt Q99836, residues 155-296: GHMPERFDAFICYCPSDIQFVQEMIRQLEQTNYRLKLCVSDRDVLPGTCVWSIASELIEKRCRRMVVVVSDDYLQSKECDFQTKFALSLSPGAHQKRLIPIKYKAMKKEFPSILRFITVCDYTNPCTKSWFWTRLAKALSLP

Assay [1] has as its target MyD88 TIR domain (MyD88^TIR), residues 155-296, C-terminal 6xHis tag (UniProt Q99836). The assay is described as follows: condition: 30 µM TLR6^TIR with 60 µM MyD88^TIR (negative-stain EM); turbidity-based polymerization assay + negative-stain EM; purified proteins mixed in GF buffer (10 mM HEPES pH 7.5, 150 mM NaCl, 1 mM DTT), 30 °C, absorbance at 350 nm every 30 s for 1 h; samples then seen by negative-stain EM; 60 µM MyD88^TIR with 30-120 µM receptor TIR domain; both purified.

Assay [2] shares this target. In words: condition: 30 µM TLR1^TIR with 60 µM MyD88^TIR (negative-stain EM); turbidity-based polymerization assay + negative-stain EM; purified proteins mixed in GF buffer (10 mM HEPES pH 7.5, 150 mM NaCl, 1 mM DTT), 30 °C, absorbance at 350 nm every 30 s for 1 h; samples then seen by negative-stain EM; 60 µM MyD88^TIR with 30-120 µM receptor TIR domain; both purified.

These are yes or no findings as the source states them, for the method shown. Sequences can lack the tags named with a protein.

B1: TLR6 TIR domain (TLR6^TIR), residues 637-783, N-terminal 6xHis tag (domain or fragment, UniProt Q9Y2C9 637-783)
chain: QRNLQFHAFISYSEHDSAWVKSELVPYLEKEDIQICLHERNFVPGKSIVENIINCIEKSYKSIFVLSPNFVQSEWCHYELYFAHHNLFHEGSNNLILILLEPIPQNSIPNKYHKLKALMTQRTYLQWPKEKSKRGLFWANIRAAFNM
B1: the binding result in assay [1] is listed as “no binding”.

B2: TLR1 TIR domain (TLR1^TIR), residues 625-786, N-terminal 6xHis tag (domain or fragment, UniProt Q15399 625-786)
chain: NIPLEELQRNLQFHAFISYSGHDSFWVKNELLPNLEKEGMQICLHERNFVPGKSIVENIITCIEKSYKSIFVLSPNFVQSEWCHYELYFAHHNLFHEGSNSLILILLEPIPQYSIPSSYHKLKSLMARRTYLEWPKEKSKRGLFWANLRAAINIKLTEQAKK
Turning to B2, the binding entry in assay [2] was “no binding”.
